{"source": "patent US20240116984A1", "about": "“MODIFIED PEPTIDES FOR THE INHIBITION OF ABNORMAL TAU ACCUMULATION” (University of Notre Dame du Lac, priority 2021, published 2024)", "key": {"[1]": {"system": "Recombinant tauP301L (0N4R)", "assay": "Thioflavin T (ThT) fluorescence aggregation assay of recombinant tauP301L", "format": "biochemical, human", "conditions": "Tau 10 μM : inhibitor 20 μM (2-fold molar excess), heparin, 48 h", "procedure": "Recombinant tauP301L (10 μM final concentration) and NAP inhibitors 20 μM final concentration) were mixed in an aggregation buffer (100 mM sodium acetate, 10 μM ThT, 10 μM heparin, 2 mM DTT, 0.5% DMSO, pH 7.4) in a 96-well clear bottom black plate with a final reaction volume of 200 μL. The plate was then sealed with a clear sealing film and allowed to incubate at 37° C. with continuous shaking in a Biotek Synergy H1 microplate reader. An automated method was used to carry out ThT fluorescence measurements at an excitation wavelength of 444 nm and an emission wavelength of 485 nm at an interval of every 5 minutes for 48 hours. Experiments were carried out in technical replicates on at least two different days. Every experiment included control wells that lacked tau301L, heparin, or NAPs. The average of tau-only (no heparin) wells was used to subtract background fluorescence and the average of the first and last 10 data points of tau+heparin wells, after blank subtraction, was used to normalize the data. All data plots were generated with SigmaPlot."}, "tauP301L fibrils": {"system": "tauP301L fibrils", "assay": "Transmission electron microscopy of heparin-induced tauP301L fibrils", "format": "biochemical, human", "conditions": "two-fold molar excess of inhibitor, 96 h", "procedure": "For analyzing fibrils by transmission electron microscopy (TEM), aggregation was carried out under conditions similar to the assay above but with ThT excluded and a final reaction volume of 100 μL Samples were incubated in a microcentrifuge tube for 4 days at 37° C. with a mixing speed of 100 rpm. A 10 μL aliquot of the sample was then applied to 400-meshed formvar/carbon-coated copper grids and negative stained with 2% uranyl-acetate. Micrographs were taken on a JEOL 2011 TEM at 200 kV."}}, "note": "“Also recorded” adds a separate entry of the source. At least one peptide structure holds a part that was inferred or is arguable (an end, a ring closure or a residue). Starred links: 1 amine or outer side, 2 acyl side, 3 side chain; linkers in the order of their positions; H or OH if unused. Non-standard residues stand in square brackets, D forms with d. Residues, ends and D or L forms follow the SMILES beside them. *: point of attachment. N(NH2)LysNH2 = NCCCC[C@@H](C(N)=O)N(N)*; X3 = CC(C)[C@@H](C(=O)[*:2])N(N)[*:1]", "data": [{"smiles": "CC[C@H](C)[C@H](NC(=O)[C@H](CCC(N)=O)NC(=O)[C@@H](NC(C)=O)C(C)C)C(=O)N(N)[C@H](C(=O)N[C@@H](Cc1ccc(O)cc1)C(=O)N(N)[C@@H](CCCCN)C(N)=O)C(C)C", "note": "[Compound 13, Ac-Val-Gln-Ile-aVal-Tyr-aLys-NH2] (Ac-VQI[X3]Y-{N(NH2)LysNH2})", "values": [{"measurement": "effect on end-point ThT fluorescence of tauP301L (inhibition of Tau aggregation)", "setting": "[1]", "result": "significantly reduce"}, {"measurement": "fibril morphology / inhibition of Tau fibril formation by TEM", "setting": "tauP301L fibrils", "result": "non-fibrillary amorphous aggregates; also recorded: non-fibrillary, amorphous aggregates"}]}]}
